From US6087121A, “Chemiluminescent detection of heme proteins in biological samples” (Mayo Foundation for Medical Education and Research, priority 1999, dated 2000)

Test system: Hb
Experiment: Performance characteristics of Hb assay (precision, linearity, recovery, stability)
Parameters: species or system human
Description: Ultrafiltered urine was prepared from a pool of fresh urine specimens by ultrafiltration through Centriprep-10 at 3,000×g in a Beckman J2-HC centrifuge (Beckman Instruments, Calif.). This treatment separates all biomolecules with molecular weight greater than 10,000 daltons so that the ultrafiltered urine is devoid of Hemoglobin (Hb) and Myoglobin (Mb). Stock standards were prepared with the ultrafiltrate containing known quantities of, either purified Hb or washed, packed RBCS. A cell count of the stock RBC standard was determined by the Yellow IRIS® Automated Imaging System (Independent Research Imaging Systems, Chatsworth, Calif.). Cells in urine are imaged under laminar flow conditions. Up to 80 images of cells are captured using a high speed charged-coupled device camera. Cell images are then identified and quantified. Serial dilutions of the stock standards were made with the ultrafiltrate. All chemiluminescence measurements were determined using a Berthold AutoLumat, LB 953 (EG&G Berthold, Aliquippa, Pa.).
Fresh urine specimens were obtained in routine commercial collection vessels. The specimens were, either, analyzed immediately or stored at 4° C. until analysis. The urine samples were prepared for analysis by adding CTAC to produce a 0.1% solution, unless otherwise noted, in order to lyse the erythrocytes, thereby releasing hemoglobin. The assays were performed in a 75×12 mm polystyrene tube. The assay solutions were prepared by adding to each tube 294 μL of high ionic strength buffer, 5.0 μL of the prepared urine samples or standards, and […] of substrate (0.4 mM solution of 7-DNH), unless otherwise noted. The emission of light was measured over five seconds following automatic injection of 300 μL of 5% hydrogen peroxide (pH 3.25). The standard curve was obtained by plotting chemiluminescence emission in Relative Light Units (RLU) versus Hb concentration (μg/mL) or number of RBCs (#RBC/high power field (hpf)). Cell counts were determined with the Yellow Iris® instrument and confirmed by a manual hemocytometer count.
Intra-assay imprecisions were calculated by performing the assays on the same day and determining the mean and standard deviation of ten replicates. Inter-assay imprecisions were calculated by performing the assays on the Hb standard samples made fresh on different days. The mean and standard deviation of six analyses of each standard were performed once daily. Intra- and inter-assay imprecision were calculated from analysis of three standards at three concentration levels which spanned the range of concentrations at which the assay was accurate. Within run imprecisions, expressed as % coefficient of variation (CV), were a 4.9, 6.2, and 0.5% for low, medium and high Hb levels, respectively (Table 3). Intra-assay imprecisions for the RBC standard were slightly higher; 9.9, 7.4, 5.7% for low, medium and high numbers of RBCs in the urine (Table 4). Intra-assay imprecisions for Hb concentration were 6.86, 7.23 and 6.06 for low, medium and high concentration of Hb, respectively.
The standard curve for the assay is linear down to 60 ng/mL and up to 250 μg/mL Hb. […]
The effect of measurement time on the reproducibility of the assay was determined by measuring six duplicate samples treated with detergent and substrate at aspecific time intervals. The first sample was assayed at zero time with the remaining samples measured at 5 minutes intervals up to 25 minutes. […]

Hemoglobin: human hemoglobin purchased from Sigma
Recovery of Hb spiked into ultrafiltered urine (300 ng/mL): 96.5% | Recovery of Hb spiked into ultrafiltered urine (62500 ng/mL): 101.3% | Recovery of Hb spiked into ultrafiltered urine (97670 ng/mL): 97.7% | lower limit of linear/working range for Hb (standard curve): 60 ng/mL | upper limit of linear/working range for Hb (standard curve): 250 µg/mL
